Results from PubChem BioAssay AID1159583 (ICCB-Longwood Screening Facility, Harvard Medical School, 2016).
Values joined by “and” are separate entries in the source; they are usually repeats but may differ in a detail not shown here. Equal values may be shown once. Some of the results follow.

Assay: hypoxia reporter signal reduction in M. tuberculosis – fluorescence, absorbance growth readout, primary screen (AID 1159583)
Settings: M. tuberculosis hypoxia-regulated fluorescent reporter, measured here: M. tuberculosis growth (absorbance), stronger effect = higher value, concentration not given here

| SMILES | growth inhibition |
| --- | --- |
| CN(C(=O)Cc1ccc(Cl)c(Cl)c1)C1CCCCC1N1CCCC1 (stereo not given) | -1.08% and 4.01% and 3.08% |
| CN(C)C(=O)c1c([N+](=O)[O-])cc([N+](=O)[O-])cc1[N+](=O)[O-] | 5.47% |
| CC1CCN(C(=O)Oc2c(Cl)cc(Cl)c3cccnc23)CC1 | 11.1% |
| C[N+]1=C2C=CC=CC=C2SC12C([N+](=O)[O-])=CC([N+](=O)[O-])=C[C-]2[N+](=O)[O-] (stereo not given) | 10.2% |
| COc1ccccc1OP(C)(=O)Nc1ccccc1Br (stereo not given) | 6.63% |
| Nc1ccc([As](=O)(O)c2ccc(N)cc2)cc1 | 9.24% |
| CC(C)(C)c1ccc(OP(C)(=O)O)cc1 | 10.4% |
| CP(=O)(Nc1ccc(Cl)cc1)Oc1ccc(F)cc1 (stereo not given) | 13.4% |
| O=C(OCCCN1CCCC1)C(O)(c1ccccc1)C1CCCCC1 (stereo not given) | -9.77% |
| CC(=O)N1C2C3N(C(C)=O)C1C1N(C(C)=O)C(C(N1C(C)=O)N3C(C)=O)N2C(C)=O | 2.48% |
| CCc1ccc(OP(C)(=O)Nc2cccnc2)cc1 (stereo not given) | 12% |
| O=[N+]([O-])c1cc([N+](=O)[O-])c(CCNc2ccccc2)c([N+](=O)[O-])c1 | 12.9% |
| CCc1nc2c(n1)c1c(non1O)c1c2no[n+]1[O-] | 9.74% |
| Cc1ccc(NP(=O)(Oc2ccccc2)Oc2ccccc2)nc1 | 0.154% |
| COc1ccc(C2=NCC(CBr)S2)cc1 (stereo not given) | -12.3% |
| COc1ccc(OP(C)(=O)Nc2ccc(Br)cc2)cc1 (stereo not given) | 4.24% |
| CCN(CC)CC(O)COC(=O)C(O)(c1ccccc1)C1CCCCC1 (stereo not given) | 6.51% |
| O=[N+]([O-])c1cccc(NC2=NCC(CBr)S2)c1 (stereo not given) | -1.69% |
| O=C(O)CNc1ccc([As](=O)(O)O)cc1 | -0.348% |
| CC(C)(C)C(=O)NC(Sc1ccncn1)C(Cl)(Cl)Cl (stereo not given) | -5.97% |
| O=[N+]([O-])c1ncn(CCn2ncnc2[N+](=O)[O-])n1 | -1.97% |
| O=C(Nc1cc([As](=O)(O)O)ccc1O)c1ccccc1 | 1.65% |
| CP(=O)(OC12CC3CC(CC(C3)C1)C2)OC12CC3CC(CC(C3)C1)C2 | 6.77% |
| Nc1ccc2c(ccc3cccnc32)n1.O=[N+]([O-])c1cc([N+](=O)[O-])c(O)c([N+](=O)[O-])c1 | -0.266% |
| O=P1(N(CCCl)CCCl)OCCCS1 (stereo not given) | 11.7% |

| SMILES | growth inhibition |
| --- | --- |
| CCN(N=Nc1nonc1N)c1nonc1N | 10.2% |
| CP(=O)(Nc1ccc(Cl)cc1Cl)Oc1ccccc1 (stereo not given) | 1.54% |
| COc1ccccc1OP(C)(=O)Nc1ccc(C)c(C)c1 (stereo not given) | 4.26% |
| Cc1ccc(NP(=O)(Oc2ccccc2F)Oc2ccccc2F)nc1 | -0.485% |
| Cc1cc(SC(NC(=O)c2ccc(F)cc2)C(Cl)(Cl)Cl)ncn1 (stereo not given) | 11.8% |
| CCOP(=O)(Nc1ccccc1)OCC | 7.07% |
| CC(C)=NN=C(N)N[N+](=O)[O-] | 0.771% |
| CCN(CC)CC(C)C(C)OC(=O)C(O)(c1ccccc1)c1ccccc1 (stereo not given) | 4.01% |
| CCCC1OP(N)(=O)OCC1CC (stereo not given) | 8.43% |
| CC(=O)Nc1ccc([As](=O)(O)O)cc1 | -8.33% |
| O=C(O)c1ccccc1[As](=O)(O)O | 3.23% |
| O=P(Nc1nc2ccc(Cl)cc2s1)(c1ccccc1)c1ccccc1 | 0.0124% |
| Cc1cc(C)cc(OP(C)(=O)Nc2cccc(C(F)(F)F)c2)c1 (stereo not given) | -7.91% |
| O=C1C(O)=C([N+](=O)[O-])C(=O)C(O)=C1[N+](=O)[O-] | 6.59% |
| COc1ccccc1OP(C)(=O)Nc1ccc(C)cc1C (stereo not given) | 2.73% |
| CCc1ccc(OP(C)(=O)O)cc1 | 4.72% |
| Nc1cc(N)c2nonc2c1[N+](=O)[O-] | 9.24% |
| Cc1c(NP(C)(=O)Oc2ccc(C(C)C)cc2)c(=O)n(-c2ccccc2)n1C (stereo not given) | 11.8% |
| O=[N+]([O-])c1cc([N+](=O)[O-])c(Nc2ccccn2)c([N+](=O)[O-])c1 | 30.4% |
| CC(C)CC(=O)NC(Sc1ccc(Cl)cc1)C(Cl)(Cl)Cl (stereo not given) | 2.23% |
| O=C(NC(Sc1ccncn1)C(Cl)(Cl)Cl)c1ccccc1 (stereo not given) | 10.2% |
| Oc1ccccc1CNc1ccccn1 | 9.71% |
| Cc1ccc(OP(=O)(Nc2nccs2)Oc2ccc(C)cc2)cc1 | 9.95% |
| COc1ccccc1OP(=O)(Nc1ccc(C)cn1)Oc1ccccc1OC | 1.23% |
| COc1ccc(OP(C)(=O)Nc2ccccn2)cc1 (stereo not given) | -0.774% |

| SMILES | growth inhibition |
| --- | --- |
| CN1CCCC(OC(=O)C(c2ccccc2)c2ccccc2)C1 (stereo not given) | 7.16% |
| CN(C)CCOC(=O)C(O)(c1ccccc1)C1CCCC1 (stereo not given) | 7.89% |
| Clc1ccc(Cl)c(NC2=NCC(CBr)S2)c1 (stereo not given) | -1.97% |
| NC(=O)c1cc([N+](=O)[O-])cc([N+](=O)[O-])c1N | 4.6% |
| COc1ccccc1OP(C)(=O)Nc1ccc(Br)cc1 (stereo not given) | 15.9% |
| CC(=O)Nc1ccc(Oc2c([N+](=O)[O-])cc([N+](=O)[O-])cc2[N+](=O)[O-])cc1 | 1.54% |
| CC(=O)Nc1ccc([As](=O)(O)O)c(O)c1 | 8.02% |
| O=C(OC1CN2CCC1CC2)c1ccc([N+](=O)[O-])cc1 (stereo not given) | 8.76% |
| CC(=O)c1ccc(N2CC2c2ccncc2)cc1 (stereo not given) | 2.75% |
| O=C(OCCN1CCN(CCOCc2ccccc2)CC1)C(O)(c1ccccc1)c1ccccc1 | 1.5% |
| Cc1ccccc1CN(C)C(=O)COC(=O)C(O)(c1ccccc1)c1ccccc1 | -7.71% |
| CP(=O)(Nc1ccccc1F)Oc1ccccc1 (stereo not given) | 7.9% |
| CCc1cc(O)c([N+](=O)[O-])c(C)c1[N+](=O)[O-] | 9.82% |
| CC(C)(C)C(=O)NC(Sc1ccccc1)C(Cl)(Cl)Cl (stereo not given) | 4.16% |
| CN(C(=O)Cc1ccccc1)C1CC[C@]2(CCCO2)CC1N1CCCC1 (stereo not given in full) | 13.3% |
| CCOc1ccc(C2=NCC(CBr)S2)cc1 (stereo not given) | -3.71% |
| O=P1(Nc2nc3ccc(Cl)cc3s2)COc2ccccc2O1 (stereo not given) | 9.21% |
| CP(=O)(Nc1ccccc1)Oc1ccc(F)cc1 (stereo not given) | 15.8% |
| O=[N+]([O-])c1cc([N+](=O)[O-])c(OC2CCCCC2O)c([N+](=O)[O-])c1 (stereo not given) | -7.76% |
| O=c1c2cc([N+](=O)[O-])ccc2[nH]c2c([N+](=O)[O-])cc([N+](=O)[O-])cc12 | 30% |
| CN(C)C(=O)Oc1noc2ccccc12 | 13.4% |
| CC(NC(=O)COC(=O)C(O)(c1ccccc1)c1ccccc1)c1ccccc1 (stereo not given) | 9.48% |
| Cc1ccccc1OP(=O)(Nc1ccccn1)Oc1ccccc1C | 3.49% |
| CC(=O)NC(SC(=S)N(CC(C)C)CC(C)C)C(Cl)(Cl)Cl (stereo not given) | 1.87% |
| Cc1ccc(OP(=O)(Nc2ccccn2)Oc2ccc(C)cc2)cc1 | 0.49% |
